PubChem BioAssay (NCATS)
Inconclusive means that the source gave no clear call. Such entries were picked first, then a sample of the others. For some assays here: Potencies of inconclusive entries are doubtful fits and often do not repeat. The source made the active and inactive calls. The call rests on the fitted dose curve; in most records, active means well fitted curve in the direction sought with a large enough effect; inconclusive means small, poorly fitted or top-dose-only effect, or another doubt; inactive means no such curve, though single readings can be large; an effect the other way counts as inactive or inconclusive.

Experiments:
[1] = qHTS of pediatric cancer cell lines to identify multiple opportunities for drug repurposing: Confirmatory screen for Rh18 cells (AID 1347125); conditions: Rh18 rhabdomyosarcoma cells, viability; series mostly up to 45.9 µM; further: nearly all actives have a fitted effect of over 55% in size; further: potency means the concentration at half of the fitted maximal effect
Summary of the method: (§1)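 Viability after 48 h compound treatment at 37C, 500-1,000 cells/well, read as ATP luminescence with CellTiter-Glo. Primary screens used 11-point (MIPE, 0.78 nM-46 µM) or 8-point (NPC, 0.59 nM-46 µM) final concentrations; follow-up screens used 11-point dilutions.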

[2] = Primary qHTS for small molecule stabilizers of the endoplasmic reticulum resident proteome: Secreted ER Calcium Modulated Protein (SERCaMP) assay (AID 1508630); conditions: SH-SY5Y GLuc-SERCaMP secretion, thapsigargin, luminescence; series mostly up to 38.4 µM; further: potency means the concentration at half of the fitted maximal effect
Summary of the method: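 GLuc-SERCaMP-expressing SH-SY5Y cells, pretreated 16 h with compound, are challenged with thapsigargin to empty ER calcium stores; after 4 h, coelenterazine is added directly to the medium and luminescence is imaged.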

[3] = Quantitative High-Throughput drug screen in 47 multiple myeloma cell lines against the NCATS MIPE library collection: MM1S_ATCC cell viability assay (AID 1918980); conditions: MM1S myeloma viability, CellTiter-Glo ATP luminescence, 48 h; series mostly up to 45.8 µM; further: nearly all actives have a fitted effect of over 45% in size; further: potency means the concentration at half of the fitted maximal effect
Summary of the method: (§2)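 500 cells/well per myeloma line exposed to pinned MIPE 4.0 compounds for 48 h at 37 °C, 5% CO2. Viability read as ATP by CellTiter-Glo luminescence, normalised to DMSO-only (100%) and media-only (0%) wells.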

[4] = Quantitative High-Throughput drug screen in 47 multiple myeloma cell lines against the NCATS MIPE library collection: KMS28PE_JCRB cell viability assay (AID 1918983); conditions: KMS28PE multiple myeloma viability, CellTiter-Glo ATP, 48 h; series mostly up to 45.8 µM; further: nearly all actives have a fitted effect of over 35% in size; further: potency means the concentration at half of the fitted maximal effect
Summary of the method: as §2

[5] = Quantitative High-Throughput drug screen in 47 multiple myeloma cell lines against the NCATS MIPE library collection: XG6_PLB cell viability assay (AID 1919865); conditions: XG6 myeloma viability, CellTiter-Glo ATP luminescence, 48 h; viability (% of control): at 45.8 µM (top of the series); further: nearly all actives have a fitted effect of over 40% in size; further: potency means the concentration at half of the fitted maximal effect
Summary of the method: as §2

[6] = qHTS of pediatric cancer cell lines to identify multiple opportunities for drug repurposing: Primary screen for A673 cells (AID 1347092); conditions: A673 Ewing sarcoma viability, CellTiter-Glo ATP luminescence, 48 h; series mostly up to 46 µM; further: nearly all actives have a fitted effect of over 45% in size
Summary of the method: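 Luminescence from CellTiter-Glo, taken after 15 min at room temperature, served as the proxy for metabolically active cells following 48 h treatment. Both potency and efficacy were taken from curves fitted to the titration data.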

[7] = Quantitative High-Throughput drug screen in 47 multiple myeloma cell lines against the NCATS MIPE library collection: FR4_PLB cell viability assay (AID 1918924; further: nearly all actives have a fitted effect of over 35% in size; further: potency means the concentration at half of the fitted maximal effect); conditions: FR4_PLB myeloma cells viability, CellTiter-Glo ATP, 48 h; series mostly up to 45.8 µM
Summary of the method: (§3)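 Myeloma cell lines, 500 cells per well, exposed to MIPE 4.0 library compounds for 48 h at 37C, 5% CO2. Viability from ATP by CellTiter-Glo luminescence; normalised to DMSO (100%) and media-only (0%) wells.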

[8] = Quantitative High-Throughput drug screen in 47 multiple myeloma cell lines against the NCATS MIPE library collection: AMO1_DSMZ cell viability assay (AID 1918927; further: nearly all actives have a fitted effect of over 30% in size); conditions: AMO1 myeloma cells viability, CellTiter-Glo ATP luminescence, 48 h; series mostly up to 45.8 µM
Summary of the method: (§4)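 Inhibition of cell viability is measured here. Each line was plated at 500 cells per well, treated with MIPE 4.0 drugs, kept 48 hours at 37C, then assayed for ATP content by CellTiter-Glo luminescence.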

[9] = Quantitative High-Throughput drug screen in 47 multiple myeloma cell lines against the NCATS MIPE library collection: KMS26_JCRB cell viability assay (AID 1918975); conditions: KMS26 myeloma cells viability, CellTiter-Glo ATP, 48 h; series mostly up to 45.8 µM; further: nearly all actives have a fitted effect of over 45% in size; further: potency means the concentration at half of the fitted maximal effect
Summary of the method: as §3

[10] = Quantitative High-Throughput drug screen in 47 multiple myeloma cell lines against the NCATS MIPE library collection: KMS11_JCRBsus cell viability assay (AID 1919873); conditions: KMS11 myeloma viability, CellTiter-Glo ATP luminescence, 48 h; series mostly up to 45.8 µM; further: nearly all actives have a fitted effect of over 50% in size; further: potency means the concentration at half of the fitted maximal effect
Summary of the method: as §2

[11] = test system: Zika virus NS2B-NS3 protease; assay: Primary screen GU AMC qHTS for Zika virus inhibitors (AID 1347154); conditions: Zika NS2B-NS3 unlinked protease, AMC fluorogenic substrate; series mostly up to 54.1 µM; further: nearly all actives have a fitted effect of over 70% in size; further: potency means the concentration at half of the fitted maximal effect
Summary of the method: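 Unlinked Zika NS2B hydrophilic domain–NS3 protease complex at 25 nM in 10 mM Tris-HCl pH 8.0, 0.01% Tween 20, with an AMC peptide substrate. Fluorescence change (340/450 nm) over 15 min at room temperature, normalized to controls, fitted to 4-parameter Hill.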

[12] = Quantitative High-Throughput drug screen in 47 multiple myeloma cell lines against the NCATS MIPE library collection: INA6_PLB cell viability assay (AID 1918965; further: nearly all actives have a fitted effect of over 55% in size; further: potency means the concentration at half of the fitted maximal effect); conditions: INA6 myeloma viability, CellTiter-Glo ATP luminescence, 48 h; viability (% of control): at 45.8 µM (top of the series)
Summary of the method: as §3

[13] = Quantitative High-Throughput drug screen in 47 multiple myeloma cell lines against the NCATS MIPE library collection: ARP1_JJKsccF8 cell viability assay (AID 1918928; further: nearly all actives have a fitted effect of over 40% in size; further: potency means the concentration at half of the fitted maximal effect); conditions: ARP1 myeloma cells viability, CellTiter-Glo ATP, 48 h; series mostly up to 45.8 µM
Summary of the method: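 Luminescence from CellTiter-Glo, taken after 5 min at room temperature, reports cellular ATP as viability. Cells (500 per well) had been treated 48 h at 37 °C with MIPE 4.0 compounds, scaled between DMSO and medium-only controls.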

[14] = Quantitative High-Throughput drug screen in 47 multiple myeloma cell lines against the NCATS MIPE library collection: OPM2_DSMZ cell viability assay (AID 1919872); conditions: OPM2 myeloma viability, CellTiter-Glo ATP luminescence, 48 h; series mostly up to 45.8 µM; further: potency means the concentration at half of the fitted maximal effect; nearly all actives have a fitted effect of over 30% in size
Summary of the method: as §4

WaGa = assay: qHTS assay to identify novel small-molecules to repurpose for Merkel cell carcinoma treatment (AID 1296009); conditions: MCC and control cell lines, CellTiter-Glo viability, 72 h; series mostly up to 46 µM; further: potency means the concentration at half of the fitted maximal effect; nearly all actives have a fitted effect of over 60% in size
Summary of the method: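 Cells were treated for 72 hr at 37 degree celsius with compounds in 8- or 11-point dose response. Viability was read by CellTiter-Glo luminescence, normalized to no-cell (cytotoxicity) and DMSO controls.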

[15] = test system: Nanoluciferase (engineered Oplophorus gracilirostris luciferase); assay: Primary Nanoluciferase (NLuc) qHTS assay for identification of artifact compounds. (AID 1845222); conditions: NLuc-conditioned medium, Nano-Glo luminescence, 5 min; series mostly up to 54.1 µM; further: potency means the concentration at half of the fitted maximal effect
Summary of the method: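 Diluted conditioned medium from NLuc-expressing S16 cells treated with compounds for 15 min at room temperature, then Nano-Glo substrate added; luminescence read after 5 min. Percent inhibition versus no-enzyme and DMSO controls fitted to 4-parameter Hill equation.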

[16] = qHTS of pediatric cancer cell lines to identify multiple opportunities for drug repurposing: Confirmatory screen for BT-12 cells (AID 1347112); conditions: BT-12 rhabdoid tumor cells, viability; series mostly up to 45.9 µM; further: nearly all actives have a fitted effect of over 55% in size
Summary of the method: as §1

[17] = qHTS of pediatric cancer cell lines to identify multiple opportunities for drug repurposing: Confirmatory screen for Saos-2 cells (AID 1347127); conditions: Saos-2 osteosarcoma cell viability; series mostly up to 45.9 µM; further: potency means the concentration at half of the fitted maximal effect; nearly all actives have a fitted effect of over 60% in size
Summary of the method: as §1

## COC(=O)Nc1nc2ccc(C(=O)c3ccc(F)cc3)cc2[nH]1
[1]
  Potency: inactive
[2]
  Potency: inactive
[3]
  Potency: inconclusive: 1.18 µM [cytotoxic, full curve, poor fit]
[4]
  Potency: active: 1.66 µM
[5]
  Potency: active: 0.469 µM

## C[C@@H]1CN(c2c(F)c(N)c3c(=O)c(C(=O)O)cn(C4CC4)c3c2F)C[C@H](C)N1
[6]
  Potency: inactive
[2]
  Potency: inactive
[7]
  Potency: inconclusive: 0.0257 µM [rising, full curve, poor fit]
[8]
  Potency: inactive
[9]
  Potency: inconclusive: 5.75 µM [rising, single point]
[3]
  Potency: inactive
[4]
  Potency: inactive
[5]
  Potency: inactive
[10]
  Potency: inactive

## CN1CCN(c2c(F)cc3c(=O)c(C(=O)O)cn4c3c2OCN4C)CC1
[11]
  Potency: inactive
[2]
  Potency: inactive
[7]
  Potency: inactive
[12]
  Potency: inactive
[9]
  Potency: inconclusive: 10.5 µM [cytotoxic, full curve, poor fit]
[3]
  Potency: inactive
[5]
  Potency: inconclusive: 0.0148 µM [rising, full curve, poor fit]

## CN(C)CCc1c[nH]c2ccc(CS(=O)(=O)N3CCCC3)cc12
[6]
  Potency: inactive
[13]
  Potency: inactive
[9]
  Potency: inactive
[3]
  Potency: inconclusive: 0.0047 µM [rising, full curve]
[4]
  Potency: inconclusive: 0.0037 µM [rising, full curve, poor fit]
[5]
  Potency: inconclusive: 2.96 µM [cytotoxic, full curve]
[14]
  Potency: inconclusive: 11.8 µM [rising, single point]
[10]
  Potency: inconclusive: 37.2 µM [cytotoxic, single point]

## NC1(Cc2ccc(Cl)cc2)CCN(c2ncnc3[nH]ccc23)CC1
[7]
  Potency: inconclusive: 33.2 µM [cytotoxic, single point]
WaGa
  Potency: inconclusive: 10.5 µM [inhibitor, partial curve]

## CCCNC(=O)NS(=O)(=O)c1ccc(Cl)cc1
[11]
  Potency: inactive
[2]
  Potency: inconclusive: 2 µM [inhibitor, full curve, poor fit]
[15]
  Potency: inconclusive: 26.9 µM [inhibitor, partial curve, poor fit]

## CC[C@@]1([C@@H]2O[C@@H]([C@H]3O[C@@](O)(CO)[C@H](C)C[C@H]3C)C[C@H]2C)CC[C@H]([C@]2(C)CC[C@]3(C[C@H](O)[C@@H](C)[C@@H]([C@@H](C)[C@@H](OC)[C@H](C)C(=O)O)O3)O2)O1
[1]
  Potency: inconclusive: 0.811 µM [cytotoxic, full curve]
[11]
  Potency: inactive
[13]
  Potency: inconclusive: 0.229 µM [cytotoxic, full curve]

## Cc1cc(Nc2ncnc3ccc(-c4ccc(CNCCS(C)(=O)=O)o4)cc23)ccc1Oc1ccn2ncnc2c1
[16]
  Potency: inactive
[1]
  Potency: inconclusive: 16.5 µM [cytotoxic, partial curve]
[17]
  Potency: inconclusive: 36.9 µM [cytotoxic, single point]
[11]
  Potency: inconclusive: 24.1 µM [inhibitor, partial curve]
[15]
  Potency: inconclusive: 21.3 µM [inhibitor, partial curve, poor fit]
[12]
  Potency: active: 1.87 µM
WaGa
  Potency: active: 5.26 µM
